Experiment: general procedure: peptide synthesis; BOP/HOBt/DIPEA (conjugation)

For “DOX^14 -O-glt-Gln-Trp-Ala-Val-Gly-His-Leu.PSI.(CH2 --NH)Leu-NH2”, the conjugation yield (conjugation step) was 45% and the “final purity (method not given)” value (conjugation step) was 98%.
In the case of “2-pyrrolino-DOX^14 -O-glt-Gln-Trp-Ala-Val-Gly-His-Leu.PSI.(CH2 --NH)Leu-NH2”, the “final purity (method not given)” value (late stage modification step) is reported as 98% and the step yield (late stage modification step) is reported as 60%.
